According to PMC6037762:
These are yes or no findings as the source states them, for the method shown. In cells and extracts the contact can be indirect. Some results given as binding are weak or reduced against the parent protein; the word gives no strength. For part of these data: Where a sequence is shown, tags or fusion partners need not be part of it.

The chains behind the UniProt entries cited, without tags or fusion partners.
UniProt P35240: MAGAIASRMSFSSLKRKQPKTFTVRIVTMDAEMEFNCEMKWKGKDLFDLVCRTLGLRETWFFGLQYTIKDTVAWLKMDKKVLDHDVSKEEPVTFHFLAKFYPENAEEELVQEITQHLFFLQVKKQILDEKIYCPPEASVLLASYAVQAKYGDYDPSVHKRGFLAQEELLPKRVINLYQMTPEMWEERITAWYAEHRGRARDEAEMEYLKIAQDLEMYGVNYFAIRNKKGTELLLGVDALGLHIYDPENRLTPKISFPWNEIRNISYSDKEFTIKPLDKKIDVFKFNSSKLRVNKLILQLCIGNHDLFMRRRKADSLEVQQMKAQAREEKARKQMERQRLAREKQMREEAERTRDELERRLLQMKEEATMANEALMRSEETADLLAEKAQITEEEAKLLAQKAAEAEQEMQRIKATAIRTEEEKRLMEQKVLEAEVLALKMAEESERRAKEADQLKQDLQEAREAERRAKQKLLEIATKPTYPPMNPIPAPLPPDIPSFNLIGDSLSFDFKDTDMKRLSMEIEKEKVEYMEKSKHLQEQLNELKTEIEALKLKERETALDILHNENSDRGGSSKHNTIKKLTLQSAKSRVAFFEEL
UniProt Q9GZV5: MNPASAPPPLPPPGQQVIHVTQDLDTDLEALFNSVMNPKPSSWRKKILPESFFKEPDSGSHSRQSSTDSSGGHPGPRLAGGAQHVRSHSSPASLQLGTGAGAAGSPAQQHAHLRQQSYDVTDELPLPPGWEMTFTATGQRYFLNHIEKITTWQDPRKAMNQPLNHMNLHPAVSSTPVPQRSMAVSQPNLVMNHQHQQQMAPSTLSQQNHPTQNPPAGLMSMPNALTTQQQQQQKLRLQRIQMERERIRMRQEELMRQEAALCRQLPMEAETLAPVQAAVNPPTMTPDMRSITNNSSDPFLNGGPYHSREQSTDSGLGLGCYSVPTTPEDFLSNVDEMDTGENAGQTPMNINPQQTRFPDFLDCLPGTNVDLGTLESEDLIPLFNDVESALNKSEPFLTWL
UniProt Q8NI35: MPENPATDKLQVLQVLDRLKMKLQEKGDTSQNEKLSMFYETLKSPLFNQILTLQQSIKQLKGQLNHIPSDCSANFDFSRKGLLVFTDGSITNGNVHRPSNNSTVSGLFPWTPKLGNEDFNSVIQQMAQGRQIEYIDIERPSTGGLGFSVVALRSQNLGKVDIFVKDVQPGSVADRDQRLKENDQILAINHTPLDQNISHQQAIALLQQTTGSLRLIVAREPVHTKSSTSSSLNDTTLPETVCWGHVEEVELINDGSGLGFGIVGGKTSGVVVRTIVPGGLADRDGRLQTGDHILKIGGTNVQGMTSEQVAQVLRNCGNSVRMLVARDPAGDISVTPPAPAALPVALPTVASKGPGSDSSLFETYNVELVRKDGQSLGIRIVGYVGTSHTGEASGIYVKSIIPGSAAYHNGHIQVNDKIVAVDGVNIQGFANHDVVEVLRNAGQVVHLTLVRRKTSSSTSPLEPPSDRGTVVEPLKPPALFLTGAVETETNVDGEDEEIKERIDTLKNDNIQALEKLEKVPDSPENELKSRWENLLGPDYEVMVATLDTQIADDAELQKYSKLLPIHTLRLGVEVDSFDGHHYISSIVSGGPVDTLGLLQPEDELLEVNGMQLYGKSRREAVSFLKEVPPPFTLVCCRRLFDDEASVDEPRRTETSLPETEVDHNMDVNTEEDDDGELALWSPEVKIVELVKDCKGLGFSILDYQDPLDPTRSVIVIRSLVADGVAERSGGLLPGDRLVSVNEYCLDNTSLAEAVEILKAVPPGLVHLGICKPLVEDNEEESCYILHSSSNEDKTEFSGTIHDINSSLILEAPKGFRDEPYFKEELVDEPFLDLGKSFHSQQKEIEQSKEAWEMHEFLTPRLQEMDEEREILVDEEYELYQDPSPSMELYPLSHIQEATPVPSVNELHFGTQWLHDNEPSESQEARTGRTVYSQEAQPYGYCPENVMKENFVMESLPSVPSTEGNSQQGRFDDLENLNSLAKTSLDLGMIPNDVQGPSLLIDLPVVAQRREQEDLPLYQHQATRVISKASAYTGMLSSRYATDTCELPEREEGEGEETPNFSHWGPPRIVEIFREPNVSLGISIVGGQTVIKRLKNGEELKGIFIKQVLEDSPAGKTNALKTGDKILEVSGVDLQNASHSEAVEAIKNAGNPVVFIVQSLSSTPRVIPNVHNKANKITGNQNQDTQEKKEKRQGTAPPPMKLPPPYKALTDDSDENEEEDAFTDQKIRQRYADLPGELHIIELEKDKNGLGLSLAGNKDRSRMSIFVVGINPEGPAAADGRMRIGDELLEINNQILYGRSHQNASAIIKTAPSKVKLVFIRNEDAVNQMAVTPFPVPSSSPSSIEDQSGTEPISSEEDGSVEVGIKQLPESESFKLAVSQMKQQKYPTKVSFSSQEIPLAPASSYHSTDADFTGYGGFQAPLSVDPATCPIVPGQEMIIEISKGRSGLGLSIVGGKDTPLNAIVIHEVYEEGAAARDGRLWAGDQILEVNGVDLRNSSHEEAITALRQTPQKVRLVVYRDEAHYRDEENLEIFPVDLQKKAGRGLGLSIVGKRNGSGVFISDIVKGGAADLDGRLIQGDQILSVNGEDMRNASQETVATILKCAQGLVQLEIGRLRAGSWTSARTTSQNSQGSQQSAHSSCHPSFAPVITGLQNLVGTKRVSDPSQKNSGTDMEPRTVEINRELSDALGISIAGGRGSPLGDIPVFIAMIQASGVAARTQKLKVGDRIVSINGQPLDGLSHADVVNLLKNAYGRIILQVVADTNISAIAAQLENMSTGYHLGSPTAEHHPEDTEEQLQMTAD

T1: GST-LATS1-142-704 (UniProt O95835)
T1 sequence: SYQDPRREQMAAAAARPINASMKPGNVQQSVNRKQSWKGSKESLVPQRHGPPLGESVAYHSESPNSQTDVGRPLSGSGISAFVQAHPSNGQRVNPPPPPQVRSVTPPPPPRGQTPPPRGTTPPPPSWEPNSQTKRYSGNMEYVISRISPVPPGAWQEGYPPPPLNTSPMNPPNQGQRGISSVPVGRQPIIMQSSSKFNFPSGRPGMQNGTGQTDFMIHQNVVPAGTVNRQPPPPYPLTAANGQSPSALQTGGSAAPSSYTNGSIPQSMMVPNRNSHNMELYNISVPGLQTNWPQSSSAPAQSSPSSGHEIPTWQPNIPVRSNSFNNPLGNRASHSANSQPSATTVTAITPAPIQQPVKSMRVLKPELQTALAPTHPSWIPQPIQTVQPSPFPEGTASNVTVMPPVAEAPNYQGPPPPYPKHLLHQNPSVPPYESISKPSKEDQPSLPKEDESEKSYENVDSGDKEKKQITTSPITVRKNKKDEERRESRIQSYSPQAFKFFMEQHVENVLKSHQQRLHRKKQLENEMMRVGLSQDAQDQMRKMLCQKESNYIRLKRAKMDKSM

T2: MST1 (human (endogenous in HEK293)) (UniProt Q13043)
T2 sequence: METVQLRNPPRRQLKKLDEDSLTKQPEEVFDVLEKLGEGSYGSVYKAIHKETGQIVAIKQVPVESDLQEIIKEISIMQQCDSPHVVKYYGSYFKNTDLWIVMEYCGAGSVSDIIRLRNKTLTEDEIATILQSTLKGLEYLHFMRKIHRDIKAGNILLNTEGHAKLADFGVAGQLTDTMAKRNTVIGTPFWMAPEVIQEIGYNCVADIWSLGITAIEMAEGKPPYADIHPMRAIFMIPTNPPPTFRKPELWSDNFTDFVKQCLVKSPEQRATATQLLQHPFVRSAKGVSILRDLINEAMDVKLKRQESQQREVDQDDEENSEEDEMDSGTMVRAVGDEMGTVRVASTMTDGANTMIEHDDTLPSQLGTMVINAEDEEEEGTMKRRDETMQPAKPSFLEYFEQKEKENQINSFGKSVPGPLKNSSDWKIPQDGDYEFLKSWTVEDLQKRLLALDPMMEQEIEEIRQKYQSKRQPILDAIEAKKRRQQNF


Experiments:
GST-LATS1-142-704 = target: T1, GST-LATS1-142-704; assay: pull-down; GST fusion protein on GST-Sepharose beads (20 uL beads or 10 ug protein) with 1 mL HEK293 total cell lysate, 2 h at 4 C, pulldown buffer 50 mM HEPES pH 7.5, 150 mM NaCl, 10% glycerol, 0.3% CHAPS; western blot; also lysates after siRNA knockdown of LATS1/2 or AMOT (Fig. 3f); only the target purified
[1] = target: T2, MST1 (human (endogenous in HEK293)); assay: co-IP; endogenous MST1 co-immunoprecipitation in cells with or without CD4-FAT1-TM/ICD (Supplementary Fig. 5b)

Row | Molecule | binding (GST-LATS1-142-704) | binding [1]
1 | NF2 (from UniProt P35240 1-595) | binds | binds
2 | SAV1 (protein, UniProt Q9H4B6 1-383) MLSRKKTKNEVSKPAEVQGKYVKKETSPLLRNLMPSFIRHGPTIPRRTDICLPDSSPNAFSTSGDVVSRNQSFLRTPIQRTPHEIMRRESNRLSAPSYLARSLADVPREYGSSQSFVTEVSFAVENGDSGSRYYYSDNFFDGQRKRPLGDRAHEDYRYYEYNHDLFQRMPQNQGRHASGIGRVAATSLGNLTNHGSEDLPLPPGWSVDWTMRGRKYYIDHNTNTTHWSHPLEREGLPPGWERVESSEFGTYYVDHTNKKAQYRHPCAPSVPRYDQPPPVTYQPQQTERNQSLLVPANPYHTAEIPDWLQVYARAPVKYDHILKWELFQLADLDTYQGMLKLLFMKELEQIVKMYEAYRQALLTELENRKQRQQWYAQQHGKNF | binds | –
3 | MOB1A (protein, UniProt Q9H8S9 1-216) MSFLFSSRSSKTFKPKKNIPEGSHQYELLKHAEATLGSGNLRQAVMLPEGEDLNEWIAVNTVDFFNQINMLYGTITEFCTEASCPVMSAGPRYEYHWADGTNIKKPIKCSAPKYIDYLMTWVQDQLDDETLFPSKIGVPFPKNFMSVAKTILKRLFRVYAHIYHQHFDSVMQLQEEAHLNTSFKHFIFFVQEFNLIDRRELAPLQELIEKLGSKDR | – | binds

Further lines, results first:

Row | binding (GST-LATS1-142-704) | binding [1] | Molecule
4 | binds | – | TAZ (from UniProt Q9GZV5 1-400)
5 | binds | – | PATJ (from UniProt Q8NI35 1-1801)
